No constants are given. Whether binding was seen depends on the method and setting. Some entries that bind do so weakly or less than the wild type.
Columns and labels:
Experiment in all cases: native gel or EMSA; complexome profiling (csBN–MS): yeast mitochondria lysed with 1% digitonin (protein:digitonin 1:8), blue native gradient gel 2–13%, cryo-sliced into 245 slices, quantitative MS; co-migration of abundance–mass profiles
[1] = biological target: T1, SAM_(core) complex (S. cerevisiae (endogenous in yeast)) (UniProt P53969+P50110+P14693)
T1 sequence 1: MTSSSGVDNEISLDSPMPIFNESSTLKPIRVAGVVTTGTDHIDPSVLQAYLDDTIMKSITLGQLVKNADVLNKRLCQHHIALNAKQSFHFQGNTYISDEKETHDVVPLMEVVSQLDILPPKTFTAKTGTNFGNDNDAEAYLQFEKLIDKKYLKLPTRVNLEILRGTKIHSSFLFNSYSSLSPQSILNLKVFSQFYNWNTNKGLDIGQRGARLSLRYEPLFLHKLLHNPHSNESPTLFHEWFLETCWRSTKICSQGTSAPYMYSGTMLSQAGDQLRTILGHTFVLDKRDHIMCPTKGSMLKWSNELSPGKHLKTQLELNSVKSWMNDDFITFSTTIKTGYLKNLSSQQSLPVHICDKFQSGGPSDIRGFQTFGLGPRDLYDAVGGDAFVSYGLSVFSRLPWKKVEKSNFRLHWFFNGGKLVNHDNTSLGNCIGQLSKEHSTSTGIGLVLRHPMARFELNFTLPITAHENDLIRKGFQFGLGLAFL
T1 sequence 2: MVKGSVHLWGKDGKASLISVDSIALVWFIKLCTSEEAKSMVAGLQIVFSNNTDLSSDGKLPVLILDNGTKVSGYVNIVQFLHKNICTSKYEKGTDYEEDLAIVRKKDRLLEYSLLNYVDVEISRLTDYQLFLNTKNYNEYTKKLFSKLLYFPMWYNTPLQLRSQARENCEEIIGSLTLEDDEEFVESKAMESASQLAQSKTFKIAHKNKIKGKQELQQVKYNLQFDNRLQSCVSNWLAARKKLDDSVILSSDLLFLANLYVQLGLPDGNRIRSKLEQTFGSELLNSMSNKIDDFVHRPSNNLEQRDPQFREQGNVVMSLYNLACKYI
T1 sequence 3: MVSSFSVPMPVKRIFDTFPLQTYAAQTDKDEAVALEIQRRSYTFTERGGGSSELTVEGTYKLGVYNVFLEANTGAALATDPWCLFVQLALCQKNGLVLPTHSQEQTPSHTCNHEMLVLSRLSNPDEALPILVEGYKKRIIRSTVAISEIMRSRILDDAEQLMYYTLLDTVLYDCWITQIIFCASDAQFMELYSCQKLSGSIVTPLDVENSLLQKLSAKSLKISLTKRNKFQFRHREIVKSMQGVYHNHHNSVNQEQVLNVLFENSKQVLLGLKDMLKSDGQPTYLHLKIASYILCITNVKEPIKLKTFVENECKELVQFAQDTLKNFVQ

By UniProt entry, the sequences of proteins in these tests, tags left out. Where a name states a change or a piece, a line headed by the entry shows the natural chain unless it says otherwise.
UniProt Q00711: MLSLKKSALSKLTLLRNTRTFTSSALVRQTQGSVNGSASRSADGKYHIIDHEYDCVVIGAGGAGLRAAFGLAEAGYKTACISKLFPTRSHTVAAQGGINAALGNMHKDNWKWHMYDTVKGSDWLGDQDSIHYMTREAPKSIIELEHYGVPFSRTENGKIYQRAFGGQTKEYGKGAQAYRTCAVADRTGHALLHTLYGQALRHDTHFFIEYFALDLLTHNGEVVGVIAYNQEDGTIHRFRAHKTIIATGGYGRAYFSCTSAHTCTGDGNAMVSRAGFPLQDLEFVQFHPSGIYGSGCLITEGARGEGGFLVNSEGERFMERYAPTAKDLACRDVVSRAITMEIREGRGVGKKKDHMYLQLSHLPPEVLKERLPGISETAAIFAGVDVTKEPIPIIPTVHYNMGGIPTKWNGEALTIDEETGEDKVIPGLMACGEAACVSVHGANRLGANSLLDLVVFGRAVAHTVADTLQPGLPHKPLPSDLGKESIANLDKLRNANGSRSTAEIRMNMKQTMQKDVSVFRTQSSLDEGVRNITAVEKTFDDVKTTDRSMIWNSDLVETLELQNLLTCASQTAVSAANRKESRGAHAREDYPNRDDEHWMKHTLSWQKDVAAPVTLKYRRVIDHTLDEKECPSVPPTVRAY
UniProt P21801: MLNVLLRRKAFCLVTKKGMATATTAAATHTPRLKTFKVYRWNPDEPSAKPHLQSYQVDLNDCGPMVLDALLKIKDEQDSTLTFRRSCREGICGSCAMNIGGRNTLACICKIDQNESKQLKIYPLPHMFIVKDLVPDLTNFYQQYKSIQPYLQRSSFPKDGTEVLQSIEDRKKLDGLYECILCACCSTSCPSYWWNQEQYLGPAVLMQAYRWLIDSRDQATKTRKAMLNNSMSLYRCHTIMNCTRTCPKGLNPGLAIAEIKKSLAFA
UniProt P37298: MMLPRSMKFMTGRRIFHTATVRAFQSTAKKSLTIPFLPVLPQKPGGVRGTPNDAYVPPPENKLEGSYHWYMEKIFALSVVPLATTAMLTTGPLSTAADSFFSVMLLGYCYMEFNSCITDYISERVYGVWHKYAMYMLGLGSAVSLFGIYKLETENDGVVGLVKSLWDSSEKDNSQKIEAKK

[2] = biological target: T2, Tim10 (S. cerevisiae (endogenous in yeast)) (UniProt P87108)
T2 sequence: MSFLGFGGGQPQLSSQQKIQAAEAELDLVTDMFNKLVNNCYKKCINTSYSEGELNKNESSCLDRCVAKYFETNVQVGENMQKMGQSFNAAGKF

[3] = biological target: succinate dehydrogenase (SDH, respiratory complex II) (S. cerevisiae (endogenous in yeast)) (UniProt Q00711+P21801+P37298)

B1: Mdm10 (protein, UniProt P18409 1-493)
chain: MLPYMDQVLRAFYQSTHWSTQNSYEDITATSRTLLDFRIPSAIHLQISNKSTPNTFNSLDFSTRSRINGSLSYLYSDAQQLEKFMRNSTDIPLQDATETYRQLQPNLNFSVSSANTLSSDNTTVDNDKKLLHDSKFVKKSLYYGRMYYPSSDLEAMIIKRLSPQTQFMLKGVSSFKESLNVLTCYFQRDSHRNLQEWIFSTSDLLCGYRVLHNFLTTPSKFNTSLYNNSSLSLGAEFWLGLVSLSPGCSTTLRYYTHSTNTGRPLTLTLSWNPLFGHISSTYSAKTGTNSTFCAKYDFNLYSIESNLSFGCEFWQKKHHLLETNKNNNDKLEPISDELVDINPNSRATKLLHENVPDLNSAVNDIPSTLDIPVHKQKLLNDLTYAFSSSLRKIDEERSTIEKFDNKINSSIFTSVWKLSTSLRDKTLKLLWEGKWRGFLISAGTELVFTRGFQESLSDDEKNDNAISISATDTENGNIPVFPAKFGIQFQYST
In the case of B1, the binding [1] is reported as “binds”.

B2: Tim9 (protein, UniProt O74700 1-87)
chain: MDALNSKEQQEFQKVVEQKQMKDFMRLYSNLVERCFTDCVNDFTTSKLTNKEQTCIMKCSEKFLKHSERVGQRFQEQNAALGQGLGR
In the case of B2, the binding [2] is reported as “binds”.

B3: Sdh3 (protein, UniProt P33421 51-198)
chain: NVASEMNTKAAIAEEQILNKQRAKRPISPHLTIYQPQLTWYLSSLHRISLVLMGLGFYLFTILFGVSGLLGLGLTTEKVSNWYHQKFSKITEWSIKGSFAYLFAIHYGGAIRHLIWDTAKELTLKGVYRTGYALIGFTAVLGTYLLTL
B3 was tested, and the binding [3] was “binds”.
